Most values lie at the floor of the assay. Slopes are relative: functional sequences can read slightly below zero.
Test system: Saccharomyces cerevisiae PS128 hsf1 delta, HSF1(1-493) fusion
Assay: growth estimate (transactivation domain function in HSF1 fusion, heat-shock survival) (a.u. (slope of normalised read count over time)); higher = stronger growth at 37°C, i.e. more transactivation activity
Conditions: library: random library

Substance	growth estimate
PATSITFTLRSGSGD	< -0.25
LASLIASLPWCRVLAIKPWA	< -0.25
MVYSEREVFLFFHLQS	< -0.25
ISKI	< -0.25
VLPRGHNTRLKGRIKRLAPV	< -0.25
DGSRRSRRVGSVC	< -0.25
AMVSQLPRNIVGAVRTDIVD	< -0.25
STGNVNRGWIATPGDVTWRD	< -0.25
NPVIGACPGCYLLIRRYLCE	< -0.25
NNPPRGTFVSD	< -0.25
SMPVCASLGGECSGLVVLGS	< -0.25
SVRPDAMRFLLTRP	< -0.25
EPRPVLLGGIA	< -0.25
GEPPTLRWRYVFGLA	< -0.25
CTESGPQAALRSCQRVVHR	< -0.25
HET	< -0.25
DHFRHGKSWWTVNWSECVCS	< -0.25
VERDTS	-0.136
GEL	< -0.25
NLVVMISADERVMWARHLRI	< -0.25
ARN	< -0.25
VRTISRLLVGKPR	< -0.25
VQPHAIERAGYVYAYGTITR	< -0.25
SGVAGLHKQLP	< -0.25

Substance	growth estimate
VDSYGRPVSSGSRDE	< -0.25
LTASCVDGY	< -0.25
RHKLTGDVINA	< -0.25
LNFGRLIWDHPARPVYGKKV	< -0.25
LEPRPVMYYDRAFTASPLPT	< -0.25
QAHQMGNQRDPVQSRGRRG	< -0.25
FEANILVHQGRG	< -0.25
SVIRHRNFRLH	< -0.25
IFIRGTIGTGAPQTLDMSLG	< -0.25
ARVKLLHAFRRH	< -0.25
VHGS	< -0.25
LSNACRVTWEIRARLFIGMF	< -0.25
TGHLRHLPNSHG	< -0.25
SDLPCNPGIRRSGINHGHFR	< -0.25
EGSRLAFGAEAGGNVAEQRM	< -0.25
KIVVSR	< -0.25
VKFRTLEATLVLHFDHQWSA	< -0.25
QSWVAAYIAQKN	< -0.25
KFADGGKKPIP	< -0.25
YQTGDFFYATRALLFPLGVY	< -0.25
IVYFGHMDGLAP	< -0.25
SETSLLTIRRTEASVRYRIG	< -0.25
ELIVWGLGKGRSCGNTTKTR	< -0.25
GQTCET	< -0.25

Substance	growth estimate
PGLFGRRGVKGCHATSQRSN	< -0.25
SASRAWVTILTFEVKSWGHG	< -0.25
AGRRQTAWAAVHRLSAAQSA	< -0.25
QQGNVGAKTAT	< -0.25
TGCNRREIRCKGTVSSCHVE	< -0.25
DKYRRYYRWCWKEGVTSSKL	< -0.25
LGITVR	< -0.25
RGALDIPR	< -0.25
RCCLGDRVRAVAQVTRRGMF	< -0.25
LTIWKAPRSYFSAKQKSMKC	< -0.25
NFGGVVVRTVAENVMAHLGQ	< -0.25
CYRTVGFTRAMHTHQWQGRL	< -0.25
RTTTSGDEQIGLVVLLASTP	< -0.25
ATNNVRSRPSRVE	< -0.25
LFESVYNTK	-0.0736
IATVSGMGTAGNAASERYQL	< -0.25
LGYDSRTRCVPWESILGWRL	< -0.25
REFICNSSNSRILVRAGGSF	< -0.25
IAVLVPILLKASVQTGRPYG	< -0.25
VLELRWGTVL	< -0.25
ERTPAQVHQIEQKSRFLRRI	-0.238
VRCDTLL	< -0.25
IYLDGFGYAGRLVVVMPILN	< -0.25
EIYQTRWLRELVGSTVRFSR	< -0.25

Substance	growth estimate
VSVFAITTQVLGPTSA	< -0.25
IMTF	< -0.25
AHIVTETDTSVSVDWS	< -0.25
PPK	< -0.25
LAVGGRLAISASLSALLGRP	-0.243
RCGVC	< -0.25
GQVLAEE	< -0.25
GNQQVNAPHDKDTHEWHRRR	< -0.25
GWKTLRIIDSG	< -0.25
VGLGLRNRKYT	< -0.25
NGGWREKGYFRCKGRALVHC	< -0.25
VSLKAWGLDIYMEVSITLTR	< -0.25
GSTH	< -0.25
GTHCTVCATLDSGGFITLLH	< -0.25
SHVEAQVQVLHLWLTLDVRN	< -0.25
TSNGPDIRYPAAVGAHSTHI	< -0.25
GFQTILSYGLAIVHIYSCNR	< -0.25
FKIDSLIIIV	< -0.25
RGQVPFNLYKFVHHGPTAFG	< -0.25
VEVTYLASGRRPDTMVRITT	< -0.25
RQESCNKSASPPGASQVPLL	< -0.25
EMDCGQDSQGLKSVSW	< -0.25
PCYCVMRFKRARTSWL	-0.248
AYPME	< -0.25

Substance	growth estimate
DVWLAERPVARRHRGTEPGL	< -0.25
LMGVRYGIGRGA	< -0.25
EGRTRFGTLSECWP	< -0.25
GLHCYYREPQKCGPDNRGLL	< -0.25
QPCRHG	< -0.25
GMCPRIGFR	< -0.25
PGWDNSYTKSIP	< -0.25
DVLSIGVYMVCWFAALVDTH	< -0.25
FERQSGRAPGSRGDPRKSTE	< -0.25
STRPCMGKYGRK	< -0.25
RCI	< -0.25
DTRQLGASCDTAFGSISVKL	< -0.25
PTPYTVQYVTMQLRYAFSLP	< -0.25
RRIHHSQPRRVCSAISIQCR	< -0.25
SPHIDPFKCRAQSPFAGGIC	< -0.25
GSIRH	0.613
LHHSTGRRGRVGETSTTHSQ	< -0.25
AINASLPL	< -0.25
FIEMQCPSGCNGTCGPTAGE	< -0.25
TELGAADVAV	< -0.25
GSIVSDLLSRPFGGYNVTGT	< -0.25
SCTISLF	< -0.25
REL	< -0.25
RTKFACPR	< -0.25

Substance	growth estimate
ELVTTSNVMRFQTVRRIGLS	< -0.25
RNVNYLSSELYRMESVSSVS	< -0.25
KGSCN	< -0.25
GSRSVWTDIVRAHLRLCSIS	-0.243
SLGGSLTTGDNAHEQVGSSA	< -0.25
IGVTSA	< -0.25
TNMFGPGYGIIALLKAFRPF	< -0.25
SSERIA	< -0.25
PVGESSARDVGLAAQPITIV	< -0.25
PTTEV	< -0.25
IPVVWPGCRSCKCVGLARIR	< -0.25
PAEVLPTRKLNISRLVLVGS	< -0.25
VRSGVSVDISGRTQRVFPAW	-0.243
RARVDEN	< -0.25
NILLEYTHPLSYALWHCAPS	< -0.25
YNLANRYKRSSPPTKHLTLD	< -0.25
GQGSTSLRVPVRRPFI	< -0.25
VLLE	< -0.25
NRLEGQSSKTP	< -0.25
VVAATIGHTAYS	< -0.25
SVPVWLLGETIVTNCLPCCP	< -0.25
SVAARA	< -0.25
KHGPLEALYRGGKAIKIQDS	< -0.25
GGSAISGHCKRPSNGGNTSR	< -0.25

Look-ups from the results shown.
VRCDTLL | growth estimate: < -0.25
IAVLVPILLKASVQTGRPYG | growth estimate: < -0.25
YNLANRYKRSSPPTKHLTLD | growth estimate: < -0.25
ARN | growth estimate: < -0.25
TSNGPDIRYPAAVGAHSTHI | growth estimate: < -0.25
VKFRTLEATLVLHFDHQWSA | growth estimate: < -0.25
GEPPTLRWRYVFGLA | growth estimate: < -0.25

Source: the supplement of paper PMC5949888
